PubChem BioAssay AID504786 | Drosophila RNAi Screening Center – 2011
The screen tested about 21,000 reagents; below is a random part of those with a known target gene and a result. 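Primary screen; positive scores mean lost reporter signal, so the sign may be inverted from the usual convention.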 Names joined by + are all predicted targets of the reagent. Further read-outs or replicates are left out here.

- Aim: 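Knock-downs reducing HIF reporter induction by the iron chelator DFO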 (primary screen)
- System: Drosophila S2 cells with a stable HIF luciferase reporter
- Knock-down reagent: long dsRNA against Drosophila genes, about 0.2 µg dsRNA per well of a 384-well plate
- Time to read-out: three days of knock-down, then 20 h of DFO before reading
- Conditions: desferrioxamine (DFO) at 100 µM, an iron chelator that mimics hypoxia, for 20 h
- Measurement: 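HIF reporter luminescence in cells given 100 µM DFO for 20 h, using the mouse ldh-a hypoxia-response element, scored as per-plate z-scores; higher means greater loss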
- Reading the numbers: z-score: higher = stronger loss of HIF reporter signal

target	dsRNA	z-score, replicate 1	z-score, replicate 2
PolZ2	DRSC12325	-0.3	-0.5
fz4	DRSC18780	-0.3	-0.5
SP2353	DRSC07545	2.1	0.2
CG12702	DRSC19487	-0.2	0
cmet	DRSC03511	-0.3	-0.1
CG10565	DRSC11620	-0.3	-0.4
CG34417	DRSC17467	-0.3	-0.2
CG34417	DRSC18332	-0.3	-0.6
CG34417	DRSC18333	-0.4	-0.5
Svip	DRSC08982	-0.1	-0.3
CG13962	DRSC02304	-0.3	-0.2
CG8910	DRSC07414	-0.2	-0.1
CG30083	DRSC05572	-0.1	-0.3
Mesh1	DRSC14433	0.2	0.6
stan	DRSC05234	4.1	4
stan	DRSC07697	-0.2	-0.4
nes	DRSC11375	-0.2	0
CG12024	DRSC08229	-0.2	-0.3
wkd	DRSC15777	-0.3	-0.5
RnrL	DRSC03413	2.7	3.5
GluRIIA	DRSC03334	-0.1	-0.7
kat-60L1	DRSC12184	-0.4	-0.6
Gpa2	DRSC21071	-0.1	0.5
CG18231	DRSC10307	-0.2	-0.4
cort	DRSC02148	0.5	0
CG14984	DRSC08442	-0.2	-0.6
CG13101	DRSC02201	-0.3	-0.5
CG34249 (retired record)	DRSC09431	-0.2	-0.1
Ccp84Ac	DRSC12588	-0.3	-0.6
Prp31	DRSC10735	1.1	1.5
CG7131	DRSC16203	-0.1	0.1
Neb-cGP	DRSC17991	-0.2	-0.4
Pex13	DRSC06877	-0.3	-0.6
jing	DRSC04923	-0.3	-0.5
jing	DRSC04927	0.1	-0.2
jing	DRSC05000	0.7	0.9
CG6739	DRSC02987	0.1	-0.4
CG42496 + Ppcdc	DRSC03886	2.1	0.2
spo	DRSC11127	-0.4	0
Met	DRSC20284	-0.3	-0.7
Ser12	DRSC00786	-0.2	-0.5
yellow-e	DRSC12966	-0.5	-0.6
yellow-e	DRSC16563	-0.3	0.1
DZIP1	DRSC14620	-0.3	-0.2
Prosalpha7	DRSC07516	5.8	5.3
CG34243 (retired record)	DRSC09291	0.2	-0.2
CG34243 (retired record)	DRSC09292	0.1	0.1
CG18428	DRSC15326	-0.2	-0.2
RpL13A	DRSC12265	3.5	3.5
TTLL4A	DRSC02528	-0.4	-0.1
woc	DRSC15928	0.2	0.9
CG4069	DRSC10396	-0.3	-0.3
CG13102	DRSC02202	-0.4	-0.6
twi	DRSC04720	0.4	0.3
alpha-Est9	DRSC12621	-0.4	-0.3
HP1c	DRSC16166	-0.3	-0.7
CG9328	DRSC03203	-0.2	-0.1
Ir7f	DRSC18012	-0.3	0.2
UK114	DRSC01973	-0.1	-0.2
Mst57Da + alpha4GT2	DRSC13732	-0.1	-0.1
Def	DRSC07398	-0.2	0
Or85f	DRSC16769	-0.2	-0.2
Gcn5	DRSC11248	0.4	1
CG14327	DRSC14806	-0.5	0
HUWE1	DRSC20089	-0.4	1
CG42246	DRSC17520	-0.2	-0.2
ck	DRSC03509	-0.3	-0.5
CG1792	DRSC15290	-0.2	0.3
CG14787	DRSC18606	-0.4	-0.4
Met75Ca + Met75Cb	DRSC09549	-0.4	-0.3
Met75Ca + Met75Cb	DRSC11221	-0.4	0
CG32488	DRSC08549	-0.8	-0.5
I-2	DRSC11194	-0.6	-1.1
Bx42	DRSC17743	3.5	4.9
CG18549	DRSC15347	-0.3	-0.5
CG15099	DRSC06528	0	0.3
CG46441	DRSC15561	-0.3	-0.4
Osbp	DRSC16779	-0.3	-0.8
GM130	DRSC04617	-0.3	-0.8
Acsx4	DRSC14311	-0.7	-0.2
CG18581	DRSC10324	0.1	-0.7
CG31122	DRSC14787	-0.3	-0.6
CG31122	DRSC16286	-0.6	-0.6

4 entries from above, reformatted.
target,dsRNA,"z-score, replicate 1","z-score, replicate 2"
Gpa2,DRSC21071,-0.1,0.5
CG18231,DRSC10307,-0.2,-0.4
cort,DRSC02148,0.5,0
CG14984,DRSC08442,-0.2,-0.6
